In patent US20130190248A1 (AGENSYS, INC., priority 2011, published 2013):

Assay: general procedure: solution-phase peptide synthesis; DEPC/DIEA; HATU/HOBT/DIEA
Conditions: TFA salt

| Substance | step yield (late stage modification step) [% yield] | step yield (coupling step) [% yield] | further results |
| --- | --- | --- | --- |
| (S)—N-((3R,4S,5S)-1-((S)-2-((1R,2R)-3-((2-Aminoethyl)amino)-1-methoxy-2-methyl-3-oxopropyl)pyrrolidin-1-yl)-3-methoxy-5-methyl-1-oxoheptan-4-yl)-2-((S)-2-(dimethylamino)-3-methylbutanamido)-N,3-dimethylbutanamide, TFA salt | 76 |  |  |
| Fmoc-MeVal-Val-Dil-Dap-[2-(1H-imidazol-4-yl)ethyl]amine |  | 1 |  |
| N-Boc-4-Abz-Val-Dil-Dap-3-(2-aminoethyl)pyridine |  | 70 |  |
| (S)—N-((3R,4S,5S)-1-((S)-2-((1R,2R)-3-((2-(1H-Imidazol-4-yl)ethyl)amino)-1-methoxy-2-methyl-3-oxopropyl)pyrrolidin-1-yl)-3-methoxy-5-methyl-1-oxoheptan-4-yl)-N,3-dimethyl-2-((S)-3-methyl-2-(methylamino)butanamido)butanamide, TFA salt | 51 |  |  |
| N—((S)-1-(((3R,4S,5S)-1-((S)-2-((1R,2R)-3-((2-(1H-Imidazol-4-yl)ethyl)amino)-1-methoxy-2-methyl-3-oxopropyl)pyrrolidin-1-yl)-3-methoxy-5-methyl-1-oxoheptan-4-yl)(methyl)amino)-3-methyl-1-oxobutan-2-yl)-4-aminobenzamide, TFA salt |  |  | step yield (purification step): 70% yield |
| 4-Amino-N—((S)-1-(((3R,4S,5S)-3-methoxy-1-((S)-2-((1R,2R)-1-methoxy-2-methyl-3-oxo-3-((2-(pyridin-2-yl)ethyl)amino)propyl)pyrrolidin-1-yl)-5-methyl-1-oxoheptan-4-yl)(methyl)amino)-3-methyl-1-oxobutan-2-yl)benzamide, TFA salt | 91 |  |  |
